# Measured values taken from patent US12441765B2, “Peptides and medical uses thereof” (Anbition S.R.L., priority 2018, dated 2025).
# By UniProt entry, the sequences of proteins in these tests, tags left out. Residues count along the entry.
# UniProt P17948, 27-758 limits assumed: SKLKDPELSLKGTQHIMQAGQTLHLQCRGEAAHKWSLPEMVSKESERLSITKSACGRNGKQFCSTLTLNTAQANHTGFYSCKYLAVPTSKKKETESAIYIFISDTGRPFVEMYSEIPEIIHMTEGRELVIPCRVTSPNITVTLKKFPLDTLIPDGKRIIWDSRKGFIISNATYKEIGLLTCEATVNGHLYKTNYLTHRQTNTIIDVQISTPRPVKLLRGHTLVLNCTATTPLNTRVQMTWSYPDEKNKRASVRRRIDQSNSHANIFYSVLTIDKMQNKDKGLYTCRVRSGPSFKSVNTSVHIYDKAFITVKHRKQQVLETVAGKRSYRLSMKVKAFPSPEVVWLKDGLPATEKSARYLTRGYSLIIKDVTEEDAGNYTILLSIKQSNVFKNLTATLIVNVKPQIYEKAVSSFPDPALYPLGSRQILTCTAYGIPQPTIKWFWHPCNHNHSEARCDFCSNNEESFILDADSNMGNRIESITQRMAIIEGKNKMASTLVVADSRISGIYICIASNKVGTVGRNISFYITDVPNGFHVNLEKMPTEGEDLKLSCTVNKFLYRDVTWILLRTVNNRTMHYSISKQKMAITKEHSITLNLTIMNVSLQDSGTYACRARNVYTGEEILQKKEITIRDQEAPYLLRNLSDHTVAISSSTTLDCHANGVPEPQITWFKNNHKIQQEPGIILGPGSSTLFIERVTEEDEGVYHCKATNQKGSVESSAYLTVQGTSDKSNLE
# UniProt P17948, 27-1338: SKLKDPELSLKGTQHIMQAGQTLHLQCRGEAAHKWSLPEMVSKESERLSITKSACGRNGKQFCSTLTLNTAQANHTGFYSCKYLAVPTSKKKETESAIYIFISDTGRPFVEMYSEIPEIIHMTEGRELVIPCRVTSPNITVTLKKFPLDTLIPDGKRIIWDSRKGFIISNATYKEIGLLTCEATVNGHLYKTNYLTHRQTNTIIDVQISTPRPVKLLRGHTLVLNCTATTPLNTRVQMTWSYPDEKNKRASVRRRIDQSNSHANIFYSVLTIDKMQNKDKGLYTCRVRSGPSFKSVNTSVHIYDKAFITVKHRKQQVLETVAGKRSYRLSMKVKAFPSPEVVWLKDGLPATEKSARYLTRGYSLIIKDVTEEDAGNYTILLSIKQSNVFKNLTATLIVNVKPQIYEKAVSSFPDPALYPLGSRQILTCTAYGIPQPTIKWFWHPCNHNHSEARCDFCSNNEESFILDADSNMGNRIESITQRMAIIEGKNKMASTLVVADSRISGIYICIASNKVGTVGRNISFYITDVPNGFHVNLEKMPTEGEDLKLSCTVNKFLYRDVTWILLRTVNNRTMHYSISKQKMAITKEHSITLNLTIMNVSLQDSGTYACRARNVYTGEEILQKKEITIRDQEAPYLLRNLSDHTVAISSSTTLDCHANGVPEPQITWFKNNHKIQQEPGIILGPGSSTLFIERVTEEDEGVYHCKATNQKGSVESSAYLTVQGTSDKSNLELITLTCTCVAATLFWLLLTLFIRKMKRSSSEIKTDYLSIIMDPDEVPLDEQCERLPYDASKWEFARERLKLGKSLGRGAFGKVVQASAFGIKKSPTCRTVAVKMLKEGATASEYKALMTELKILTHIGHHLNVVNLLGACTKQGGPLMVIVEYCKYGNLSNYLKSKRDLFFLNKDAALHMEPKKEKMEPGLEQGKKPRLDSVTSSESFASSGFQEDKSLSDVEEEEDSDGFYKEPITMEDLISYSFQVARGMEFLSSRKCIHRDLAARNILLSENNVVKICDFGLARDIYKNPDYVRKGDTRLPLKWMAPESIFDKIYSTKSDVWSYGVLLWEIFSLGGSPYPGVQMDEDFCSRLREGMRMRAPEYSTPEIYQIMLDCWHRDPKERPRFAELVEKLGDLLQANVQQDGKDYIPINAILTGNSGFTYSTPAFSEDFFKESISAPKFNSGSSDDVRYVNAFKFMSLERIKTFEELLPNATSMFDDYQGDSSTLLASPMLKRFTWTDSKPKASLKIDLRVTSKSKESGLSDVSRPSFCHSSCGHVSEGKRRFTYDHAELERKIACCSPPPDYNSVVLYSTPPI
# UniProt P35968, 20-1356, species assumed: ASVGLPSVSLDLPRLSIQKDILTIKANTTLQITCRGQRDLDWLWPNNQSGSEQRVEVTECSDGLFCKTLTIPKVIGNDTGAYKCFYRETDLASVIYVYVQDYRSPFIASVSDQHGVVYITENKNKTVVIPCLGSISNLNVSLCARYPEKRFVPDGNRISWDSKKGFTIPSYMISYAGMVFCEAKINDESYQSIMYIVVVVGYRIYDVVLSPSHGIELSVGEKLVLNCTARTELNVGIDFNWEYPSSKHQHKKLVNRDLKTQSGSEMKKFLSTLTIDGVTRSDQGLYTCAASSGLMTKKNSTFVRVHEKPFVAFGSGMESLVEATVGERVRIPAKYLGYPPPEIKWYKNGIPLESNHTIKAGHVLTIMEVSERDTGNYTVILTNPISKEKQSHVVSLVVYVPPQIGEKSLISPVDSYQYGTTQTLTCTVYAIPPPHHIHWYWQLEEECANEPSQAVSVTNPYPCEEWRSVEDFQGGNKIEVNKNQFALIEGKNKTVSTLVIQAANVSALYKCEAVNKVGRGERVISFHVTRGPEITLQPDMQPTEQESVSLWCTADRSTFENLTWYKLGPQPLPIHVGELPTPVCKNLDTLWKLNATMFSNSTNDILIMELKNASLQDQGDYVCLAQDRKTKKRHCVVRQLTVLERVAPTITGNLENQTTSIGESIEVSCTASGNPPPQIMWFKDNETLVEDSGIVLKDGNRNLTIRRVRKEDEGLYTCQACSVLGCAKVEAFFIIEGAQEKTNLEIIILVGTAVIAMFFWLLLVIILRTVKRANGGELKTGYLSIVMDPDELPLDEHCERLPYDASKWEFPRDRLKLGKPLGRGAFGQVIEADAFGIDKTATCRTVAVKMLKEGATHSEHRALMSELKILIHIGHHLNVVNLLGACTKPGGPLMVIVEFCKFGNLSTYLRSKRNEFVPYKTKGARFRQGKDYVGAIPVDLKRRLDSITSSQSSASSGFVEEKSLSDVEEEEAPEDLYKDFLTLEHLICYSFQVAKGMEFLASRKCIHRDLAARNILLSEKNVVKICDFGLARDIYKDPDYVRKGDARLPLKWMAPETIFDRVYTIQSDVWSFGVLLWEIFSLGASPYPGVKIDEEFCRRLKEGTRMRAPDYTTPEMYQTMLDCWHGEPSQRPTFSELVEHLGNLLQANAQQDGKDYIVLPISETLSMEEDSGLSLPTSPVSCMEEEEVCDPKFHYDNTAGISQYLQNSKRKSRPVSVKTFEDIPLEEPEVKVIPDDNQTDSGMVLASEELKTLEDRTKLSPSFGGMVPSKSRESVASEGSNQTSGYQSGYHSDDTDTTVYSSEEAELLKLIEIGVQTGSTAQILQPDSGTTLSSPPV
# pIC50: −log10 of the molar value. For at least one compound, name, drawing or mass did not settle the structure.
# How the values were obtained:
# [1] = target: T1, VEGF-A/VEGFR-1 interaction (Homo sapiens, UniProt P17948); test: ELISA competition assay of VEGF-A binding to VEGFR-1; conditions: read-out: IC50 for VEGF-A/VEGFR-1 inhibition
# T1 construct: the form consisting of the seven extracellular domains of the receptor fused to the Fc domain of human lgG; purchased R&D Systems 321-FL (receptor); 293-VE (VEGF-A)
# Experimental: The binding reaction was conducted for one hour at 37° C., followed by one hour at room temperature. At the end of the binding and/or competition step, anti-human-PIGF biotinylated polyclonal antibodies (R&D Systems, cat No. BAF264) or anti-human-VEGF-A (R&D Systems, cat No. BAF293) were added to the wells at the concentration of 300 ng/ml in PBET. After one hour of incubation at 37° C. followed by one hour at room temperature, an HRP-conjugated avidin-streptavidin system (Vectastain elite ABC kit) and a substrate for HRP (o-phenylenediamine-Sigma, cat No. P1526) were added to the wells. Quantization was performed by determining the absorbance at 490 nm. Any inhibitory activity of the peptides was expressed in terms of % of residual binding, comparing the data obtained for the binding of PIGF or VEGF-A to the receptors in the presence of the tetrameric peptides with those in the absence of the same. iVR1 represented the positive control of the inhibition of the PIGF/VEGFR-1 or VEGF-A/VEGFR-1 interaction.
# VEGFR1 = VEGFR1 (Homo sapiens, UniProt P17948); test: PIGF-induced phosphorylation of VEGFR-1 in 293-VEGFR-1 cells (western blotting); format: cell-based; parameters: expressed in transfected cells; conditions: peptide 5 μM (5000 nM), PIGF 20 ng/ml
# [2] = test system: laser-induced choroidal neovascularization; test: Laser-induced choroidal neovascularization in mice, intravitreal or oral (gavage) administration; format: in vivo, C57BI6/J mice; conditions: for inhibition of choroidal neovascularization vs PC / inhibition of choroidal neovascularization vs the vehicle (DMSO): day 7
# PIGF/VEGFR-1 interaction = target: T2, PIGF/VEGFR-1 interaction (Homo sapiens, UniProt P17948); test: ELISA competition assay of PIGF binding to VEGFR-1; conditions: read-out: IC50 of inhibition of the interaction of PIGF with VEGFR-1
# T2 construct: the form consisting of the seven extracellular domains of the receptor fused to the Fc domain of human lgG; purchased R&D Systems 321-FL (receptor); 264-PG (PlGF)
# Experimental: The assay to test the binding of PIGF or VEGF-A with the VEGFR-1 receptor is based on the ELISA method [Ponticelli et al., JBC. 2008 Dec. 5; 283 (49): 34250-9] and was performed using reagents acquired from R&D Systems.
# The human recombinant receptor VEGFR-1, in particular the form consisting of the seven extracellular domains of the receptor fused to the Fc domain of human lgG (R&D Systems, cat N° 321-FL), was made to adhere in the wells of 96-well microplates at a concentration of 0.5 μg/ml in PBS pH 7.5 (100 μl/well) for 16 hours at room temperature (RT).
# After the non-specific binding sites had been blocked in the wells using a buffer solution consisting of PBS pH 7.5 containing 3% BSA, 5 ng/ml of recombinant PIGF (R&D Systems, cat N° 264-PG), or 5 ng/ml of recombinant VEGF-A (R&D Systems, cat N° 293-VE) of human origin in PBET (PBS pH 7.5, BSA 0.1%, EDTA 5 mM, Tween 0.004%) were added to the wells with the adhered receptor. […]
# At the end of the binding and/or competition step, anti-human-PIGF biotinylated polyclonal antibodies (R&D Systems, cat No. BAF264) or anti-human-VEGF-A (R&D Systems, cat No. BAF293) were added to the wells at the concentration of 300 ng/ml in PBET. […] Quantization was performed by determining the absorbance at 490 nm. […]
# VEGFR-2 = VEGFR-2 (Homo sapiens, UniProt P35968); conditions: reported by Ponticelli et al.; cited from earlier work
# [3] = single intravitreal injection 10 μg
# [4] = single intravitreal injection 50 μg
Structure (SMILES),pIC50 [1],inhibition of PIGF-induced phosphorylation of VEGFR-1 (VEGFR1),further reduction of neovascularization compared with iVR1 ([2]; intravitreal 10 μg) [%],"inhibition of choroidal neovascularization vs PC [2, 3] [%]","inhibition of choroidal neovascularization vs the vehicle (DMSO) [2, 3] [%]","inhibition of choroidal neovascularization vs PC [2, 4] [%]","inhibition of choroidal neovascularization vs the vehicle (DMSO) [2, 4] [%]","inhibition of choroidal neovascularization vs the vehicle (DMSO) ([2]; single intravitreal injection 50 μg, listed as iVRI-Cys) [%]",pIC50 (PIGF/VEGFR-1 interaction),binding to VEGFR-2 (VEGFR-2)
N[C@H](CCC(=O)O)C(=O)N[C@@H](CSCc1ccccc1)C(=O)N[C@@H](CC1CCCCC1)C(=O)NCCCC[C@H](NC(=O)[C@H](CC1CCCCC1)NC(=O)[C@H](CSCc1ccccc1)NC(=O)[C@H](N)CCC(=O)O)C(=O)NCCCC[C@H](NC(=O)[C@H](CCCCNC(=O)[C@H](CC1CCCCC1)NC(=O)[C@H](CSCc1ccccc1)NC(=O)[C@H](N)CCC(=O)O)NC(=O)[C@H](CC1CCCCC1)NC(=O)[C@H](CSCc1ccccc1)NC(=O)[C@H](N)CCC(=O)O)C(=O)N[C@H](CS)C(=O)O [iVR1-Cys],~6.00,powerful inhibition of phosphorylation of the receptor,19.3,51.0,48.9,−74.6,−75.9,75.9,> 6.00,
N[C@H](CCC(=O)O)C(=O)N[C@@H](CSCc1ccccc1)C(=O)N[C@@H](CC1CCCCC1)C(=O)NCCCC[C@H](NC(=O)[C@H](CC1CCCCC1)NC(=O)[C@H](CSCc1ccccc1)NC(=O)[C@H](N)CCC(=O)O)C(=O)NCCCC[C@H](NC(=O)[C@H](CCCCNC(=O)[C@H](CC1CCCCC1)NC(=O)[C@H](CSCc1ccccc1)NC(=O)[C@H](N)CCC(=O)O)NC(=O)[C@H](CC1CCCCC1)NC(=O)[C@H](CSCc1ccccc1)NC(=O)[C@H](N)CCC(=O)O)C(=O)NCC(=O)O [iVR1],,,,39.3,37.8,−76.5,,,,not capable of binding VEGFR-2
